Values of other authors, collected in patent US11452734B2, “Method of treating and preventing secondary hyperparathyroidism” (OPKO IRELAND GLOBAL HOLDINGS, LTD., priority 2006, dated 2022).
Some of these results come from one statement about several compounds together.

Molecular target: T1, Vitamin D receptors (VDR) (Homo sapiens, UniProt P11473)
T1 sequence (P11473 1-427): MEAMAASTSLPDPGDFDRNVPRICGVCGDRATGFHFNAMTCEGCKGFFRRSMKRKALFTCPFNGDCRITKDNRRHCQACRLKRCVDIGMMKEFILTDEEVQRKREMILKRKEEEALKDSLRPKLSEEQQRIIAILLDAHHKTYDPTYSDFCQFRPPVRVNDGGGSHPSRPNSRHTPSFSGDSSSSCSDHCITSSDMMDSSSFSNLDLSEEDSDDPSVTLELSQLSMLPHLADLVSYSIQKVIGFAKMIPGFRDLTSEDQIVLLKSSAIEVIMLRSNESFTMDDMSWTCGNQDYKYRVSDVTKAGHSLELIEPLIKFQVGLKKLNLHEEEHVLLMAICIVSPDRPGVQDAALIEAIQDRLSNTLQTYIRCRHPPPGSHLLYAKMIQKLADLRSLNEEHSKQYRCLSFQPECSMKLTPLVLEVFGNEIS
Details: estimated; relative to the Vitamin D hormones

Compound: C=C1CC[C@H](O)C/C1=C/C=C1\CCC[C@]2(C)[C@@H]([C@H](C)CCCC(C)C)CC[C@@H]12 [Vitamin D3, cholecalciferol]
- affinities for the VDR, lower than those of the Vitamin D hormones: at least 100 fold
